Results published in publication doi:10.1101/2024.10.23.619882.
These are yes or no findings as the source states them, for the method shown. Binding seen in cells or lysates may run through a third protein. Some results given as binding are weak or reduced against the parent protein; the word gives no strength. For some assays here: Where a sequence is shown, tags or fusion partners need not be part of it.

By UniProt entry, the sequences of proteins in these tests, tags left out. Where a name states a change or a piece, a line headed by the entry shows the natural chain unless it says otherwise. Chains listed by the source or under a name are the forms on record and can include a tag or linker. Residues count along the entry.
UniProt Q99962: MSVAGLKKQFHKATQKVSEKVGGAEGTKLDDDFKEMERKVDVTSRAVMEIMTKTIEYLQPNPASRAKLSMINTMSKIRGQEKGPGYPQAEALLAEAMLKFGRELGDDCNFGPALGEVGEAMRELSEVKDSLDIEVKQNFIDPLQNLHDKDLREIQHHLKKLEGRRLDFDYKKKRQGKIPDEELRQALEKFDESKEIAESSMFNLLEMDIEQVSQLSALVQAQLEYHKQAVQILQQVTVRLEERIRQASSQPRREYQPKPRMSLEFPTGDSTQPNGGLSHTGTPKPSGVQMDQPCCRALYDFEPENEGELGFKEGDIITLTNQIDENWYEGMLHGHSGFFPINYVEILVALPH
GST-tagged SH3 domain of EndoA1: residues 290-349 of Q99962
UniProt Q99963: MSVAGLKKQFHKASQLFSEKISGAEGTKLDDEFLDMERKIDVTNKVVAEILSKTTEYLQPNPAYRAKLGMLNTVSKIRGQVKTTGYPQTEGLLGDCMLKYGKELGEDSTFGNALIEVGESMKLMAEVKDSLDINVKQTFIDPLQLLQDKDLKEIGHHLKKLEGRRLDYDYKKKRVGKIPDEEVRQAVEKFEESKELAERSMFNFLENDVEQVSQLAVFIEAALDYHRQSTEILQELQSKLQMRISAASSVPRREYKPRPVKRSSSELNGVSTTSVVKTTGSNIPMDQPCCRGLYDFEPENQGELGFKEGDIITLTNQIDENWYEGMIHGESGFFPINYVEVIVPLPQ
GST-tagged SH3 domain of EndoA3: residues 285-344 of Q99963
UniProt B1AXH1: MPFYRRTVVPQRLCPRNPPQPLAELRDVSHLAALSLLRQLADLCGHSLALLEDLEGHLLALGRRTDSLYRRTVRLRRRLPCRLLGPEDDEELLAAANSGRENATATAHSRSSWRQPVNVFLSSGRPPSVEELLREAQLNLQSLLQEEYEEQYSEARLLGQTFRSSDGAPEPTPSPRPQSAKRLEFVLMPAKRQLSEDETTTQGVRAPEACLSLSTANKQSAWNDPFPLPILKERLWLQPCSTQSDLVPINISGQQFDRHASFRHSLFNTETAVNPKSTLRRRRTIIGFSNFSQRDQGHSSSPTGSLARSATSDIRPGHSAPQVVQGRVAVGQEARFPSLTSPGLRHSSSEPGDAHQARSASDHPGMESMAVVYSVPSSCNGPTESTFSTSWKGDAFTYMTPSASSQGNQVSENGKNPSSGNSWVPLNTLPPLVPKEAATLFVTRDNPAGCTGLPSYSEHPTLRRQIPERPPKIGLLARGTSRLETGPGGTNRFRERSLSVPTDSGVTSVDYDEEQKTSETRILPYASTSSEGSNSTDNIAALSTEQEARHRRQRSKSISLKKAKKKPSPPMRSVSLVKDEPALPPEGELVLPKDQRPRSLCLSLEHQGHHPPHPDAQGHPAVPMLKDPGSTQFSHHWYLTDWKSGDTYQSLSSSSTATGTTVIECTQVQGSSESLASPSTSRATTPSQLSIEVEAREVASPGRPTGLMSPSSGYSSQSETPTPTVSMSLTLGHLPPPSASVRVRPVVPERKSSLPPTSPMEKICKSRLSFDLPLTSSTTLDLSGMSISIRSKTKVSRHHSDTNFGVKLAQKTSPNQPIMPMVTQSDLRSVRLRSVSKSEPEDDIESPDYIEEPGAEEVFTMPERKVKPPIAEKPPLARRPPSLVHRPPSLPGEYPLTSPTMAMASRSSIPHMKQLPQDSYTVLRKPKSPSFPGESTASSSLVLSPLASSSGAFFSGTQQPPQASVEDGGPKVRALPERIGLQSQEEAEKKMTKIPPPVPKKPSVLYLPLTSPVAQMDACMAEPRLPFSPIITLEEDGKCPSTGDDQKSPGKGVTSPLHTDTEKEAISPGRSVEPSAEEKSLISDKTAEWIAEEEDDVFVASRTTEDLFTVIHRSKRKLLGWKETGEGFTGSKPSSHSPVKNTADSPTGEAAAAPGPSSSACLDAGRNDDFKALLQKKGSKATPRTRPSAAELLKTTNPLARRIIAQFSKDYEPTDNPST
UniProt Q8CAF4: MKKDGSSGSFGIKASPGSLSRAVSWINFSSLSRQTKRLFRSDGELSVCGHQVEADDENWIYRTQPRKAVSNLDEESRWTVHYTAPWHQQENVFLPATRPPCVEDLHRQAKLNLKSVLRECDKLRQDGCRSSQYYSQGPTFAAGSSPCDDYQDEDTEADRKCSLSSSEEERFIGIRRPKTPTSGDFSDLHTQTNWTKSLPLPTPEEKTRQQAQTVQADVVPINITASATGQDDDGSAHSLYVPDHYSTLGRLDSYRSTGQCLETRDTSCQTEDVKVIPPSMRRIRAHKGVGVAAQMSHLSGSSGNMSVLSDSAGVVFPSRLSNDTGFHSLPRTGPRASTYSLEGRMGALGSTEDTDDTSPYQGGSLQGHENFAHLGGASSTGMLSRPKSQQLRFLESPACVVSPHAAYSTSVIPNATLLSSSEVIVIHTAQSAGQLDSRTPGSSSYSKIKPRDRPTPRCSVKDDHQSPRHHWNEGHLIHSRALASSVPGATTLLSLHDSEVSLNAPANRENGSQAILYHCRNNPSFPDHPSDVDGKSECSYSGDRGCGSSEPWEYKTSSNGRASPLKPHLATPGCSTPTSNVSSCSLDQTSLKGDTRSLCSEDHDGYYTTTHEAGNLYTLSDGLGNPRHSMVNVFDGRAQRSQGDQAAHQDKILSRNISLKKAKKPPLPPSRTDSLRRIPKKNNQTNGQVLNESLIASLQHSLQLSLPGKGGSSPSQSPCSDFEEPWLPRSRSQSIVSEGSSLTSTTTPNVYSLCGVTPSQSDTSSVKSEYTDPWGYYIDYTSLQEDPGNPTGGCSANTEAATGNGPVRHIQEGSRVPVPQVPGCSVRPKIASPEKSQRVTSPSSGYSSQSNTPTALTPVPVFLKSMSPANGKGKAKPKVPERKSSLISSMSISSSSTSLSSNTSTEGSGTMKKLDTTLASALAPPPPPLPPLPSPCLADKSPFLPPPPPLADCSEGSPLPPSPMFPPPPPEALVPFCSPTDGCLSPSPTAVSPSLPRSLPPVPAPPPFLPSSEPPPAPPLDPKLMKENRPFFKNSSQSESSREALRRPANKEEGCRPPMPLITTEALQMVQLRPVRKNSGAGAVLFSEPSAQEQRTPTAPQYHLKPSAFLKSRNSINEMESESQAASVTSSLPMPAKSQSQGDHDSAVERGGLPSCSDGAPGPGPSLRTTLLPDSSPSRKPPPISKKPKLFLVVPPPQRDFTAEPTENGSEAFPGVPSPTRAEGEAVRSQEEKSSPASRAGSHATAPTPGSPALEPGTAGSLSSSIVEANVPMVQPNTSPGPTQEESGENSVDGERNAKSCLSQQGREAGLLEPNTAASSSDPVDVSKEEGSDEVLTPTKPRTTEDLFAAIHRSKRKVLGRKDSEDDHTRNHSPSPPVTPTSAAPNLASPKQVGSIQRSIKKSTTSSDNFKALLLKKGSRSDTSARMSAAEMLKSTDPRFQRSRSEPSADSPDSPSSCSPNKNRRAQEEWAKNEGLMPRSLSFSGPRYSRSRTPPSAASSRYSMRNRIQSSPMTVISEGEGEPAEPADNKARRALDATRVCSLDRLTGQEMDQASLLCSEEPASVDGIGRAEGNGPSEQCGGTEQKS

What was measured:
[1] = target: GST-tagged SH3 domain of EndoA1 (human) (UniProt Q99962); test: pull-down
[2] = target: GST-tagged SH3 domain of EndoA3 (human) (UniProt Q99963); test: pull-down
[3] = target: T1, GST-tagged SH3 domain of EndoA2 (rat) (UniProt O35964); test: pull-down
T1 sequence: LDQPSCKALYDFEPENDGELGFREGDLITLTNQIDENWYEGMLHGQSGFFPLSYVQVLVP

[4] = target: EndoA2-EGFP (C-terminally EGFP-tagged rat full length endophilin-A2) (rat) (UniProt O35964); test: pull-down
[5] = target: EndoA3-EGFP (endophilin-A3) (human) (UniProt Q99963); test: pull-down
[6] = target: EndoA1-EGFP (endophilin-A1) (human) (UniProt Q99962); test: pull-down
[7] = target: EGFP-tagged NHSL2 (mouse) (UniProt B1AXH1); test: pull-down
[8] = target: endogenous NHSL1 (mouse (endogenous in B16-F1)) (UniProt Q8CAF4); test: co-IP

Q: “Myc-tagged NHSL2 (from UniProt B1AXH1 1-1219)” was tested. Which binding [1] did it give?
A: Its binding is “binds”.

Q: And the binding [2]?
A: The binding was “binds”.

Q: What about the binding [3] of the same molecule?
A: The binding was “binds”.

Q: And the binding [4]?
A: Its binding is “binds”.

Q: What about the binding [5] of the same molecule?
A: Its binding is “binds”.

Q: And the binding [6]?
A: The binding was “binds”.

Q: How did the binding [7] turn out when “Myc-tagged wild-type EndoA2 (endophilin A2) (from UniProt O35964 1-368)” was run?
A: Its binding is “binds”.

B1: endogenous EVL (protein, UniProt P70429 1-414)
chain: MSEQSICQARASVMVYDDTSKKWVPIKPGQQGFSRINIYHNTASSTFRVVGVKLQDQQVVINYSIVKGLKYNQATPTFHQWRDARQVYGLNFASKEEATTFSNAMLFALNIMNSQEGGPSTQRQVQNGPSPEEMDIQRRQVMEQQHRQESLERRISATGPILPPGHPSSAASTTLSCSGPPPPPPPPVPPPPTGSTPPPPPPLPAGGAQGTNHDESSASGLAAALAGAKLRRVQRPEDASGGSSPSGTSKSDANRASSGGGGGGLMEEMNKLLAKRRKAASQTDKPADRKEDESQTEDPSTSPSPGTRATSQPPNSSEAGRKPWERSNSVEKPVSSLLSRTPSVAKSPEAKSPLQSQPHSRVKPAGSVNDVGLDALDLDRMKQEILEEVVRELHKVKEEIIDAIRQELSGISTT
Q: With B1 as the molecule, how does the binding [8] read?
A: Its binding is “binds”.
